Reference: publication PMC8809574
Residue numbers refer to the chain shown, from its start. Names may count otherwise. Results are given in words; binding and its absence hold for the method and conditions named. Binding seen in cells or lysates may run through a third protein. Some binding calls cover weakened binding; strength is not graded here.

B1: TolC-G45C (protein, UniProt P02930 23-493)
chain: ENLMQVYQQARLSNPELRKSAADRDAAFEKINEARSPLLPQLGLCADYTYSNGYRDANGINSNATSASLQLTQSIFDMSKWRALTLQEKAAGIQDVTYQTDQQTLILNTATAYFNVLNAIDVLSYTQAQKEAIYRQLDQTTQRFNVGLVAITDVQNARAQYDTVLANEVTARNNLDNAVEQLRQITGNYYPELAALNVENFKTDKPQPVNALLKEAEKRNLSLLQARLSQDLAREQIRQAQDGHLPTLDLTASTGISDTSYSGSKTRGAAGTQYDDSNMGQNKVGLSFSLPIYQGGMVNSQVKQAQYNFVGASEQLESAHRSVVQTVRSSFNNINASISSINAYKQAVVSAQSSLDAMEAGYSVGTRTIVDVLDATTTLYNAKQELANARYNYLINQLNIKSALGTLNEQDLLALNNALSKPVSTNPENVAPQTPEQNAIADGYAPDSPAPVVQQTSARTTTSNGHNPFRN
B2: TamA-G252C (protein, UniProt P0ADE4 22-577)
chain: ANVRLQVEGLSGQLEKNVRAQLSTIESDEVTPDRRFRARVDDAIREGLKALGYYQPTIEFDLRPPPKKGRQVLIAKVTPGVPVLIGGTDVVLRGGARTDKDYLKLLDTRPAIGTVLNQGDYENFKKSLTSIALRKGYFDSEFTKAQLGIALGLHKAFWDIDYNSGERYRFGHVTFEGSQIRDEYLQNLVPFKEGDEYESKDLAELNRRLSATGWFNSVVVAPQFDKARETKVLPLTGVVSPRTENTIETGVCYSTDVGPRVKATWKKPWMNSYGHSLTTSTSISAPEQTLDFSYKMPLLKNPLEQYYLVQGGFKRTDLNDTESDSTTLVASRYWDLSSGWQRAINLRWSLDHFTQGEITNTTMLFYPGVMISRTRSRGGLMPTWGDSQRYSIDYSNTAWGSDVDFSVFQAQNVWIRTLYDRHRFVTRGTLGWIETGDFDKVPPDLRFFAGGDRSIRGYKYKSIAPKYANGDLKGASKLITGSLEYQYNVTGKWWGAVFVDSGEAVSDIRRSDFKTGTGVGVRWESPVGPIKLDFAVPVADKDEHGLQFYIGLGPEL
B3: TolC-S68C (protein, UniProt P02930 23-493)
chain: B1 chain with C45G, S68C
B4: TolC-S253C (protein, UniProt P02930 23-493)
chain: B1 chain with C45G, S253C
B5: TolC-S287C (protein, UniProt P02930 23-493)
chain: B1 chain with C45G, S287C
B6: TamA-G553C (protein, UniProt P0ADE4 22-577)
chain: B2 chain with C252G, G553C

Assays:
TamA-G252C (E. coli) = target: T1, TamA-G252C (E. coli) (UniProt P0ADE4); experiment: cross-linking; in situ disulphide cross-linking between introduced cysteines; membranes isolated from E. coli ΔtamA cells co-expressing tolC and tamA variants; total membranes and Triton X-114 aqueous and detergent-enriched phases (also sucrose density fractions 1 and 7) on nonreducing SDS-PAGE, immunoblot with antibodies raised against TamA; control membranes with TamA-G553C and native TolC
T1 sequence: B2 chain

TamA-G553C (E. coli) = target: T2, TamA-G553C (E. coli) (UniProt P0ADE4); experiment: as above
T2 sequence: B2 chain with C252G, G553C

Binder | binding (TamA-G252C (E. coli)) | binding (TamA-G553C (E. coli))
B1 | binds | binds
B2 | binds | –
B3 | binds | binds
B4 | binds | binds
B5 | binds | binds
B6 | – | binds
